Results taken from patent US20230392126A1, “TISSUE ORGANOIDS” (priority 2016, published 2023).
The name of at least one read-out is uncertain.

Experiment: Phenylalanine clearance by PAL-expressing mouse epidermal keratinocytes in vitro
Type: cell-based
Conditions: exogenous expression in mouse epidermal cells
From the text: Therefore, using CRISPR-mediated genome editing with epidermal progenitor cell technology the possibility for treatment of PKU by cutaneous expression of PAL is investigated.
A complete phenotypic change from brown hair coat to dark black fur is also expected. For tissue enzymatic analysis, PAL activity detection in grafted skin is expected but not in other tissues. PAH activity is absent in the liver of the mutant mice. Female mice are more resistant to PKU therapy. If this is the case for cutaneous gene therapy, female PAH mutant mice are tested to determine whether they require larger skin grafts or more grafts than male mice for correction of hyperphenylalaninemia.

## PAL: Phenylalanine ammonia-lyase (SEQ ID NO: 51) expressed in epidermal keratinocytes
  phenylalanine clearance: ~120 nmol of phenylalanine/hour/10^6 cells
